{
  "source": "patent US5726188A",
  "about": "“Optically active imidazolidinone derivatives and processes for preparing them” (Kyorin Pharmaceutical Co., Ltd., priority 1993, dated 1998)",
  "system": "pirenzepine-induced amnesia",
  "assay": "Pirenzepine-induced amnesia, step-through type passive avoidance",
  "format": "in vivo, Std:ddY strain male mice",
  "details": "oral",
  "source_text": "Testing on the pirenzepine-induced amnesia\nFor the experiment animals, Std:ddY strain male mice with body weight of 24 to 34 g (age in week: 5-6) (Nippon SLC) were used. For the device, a step-through type passive avoidance apparatus (made by Ohara Medical Co., Ltd.) consisting of two […] and dark rooms was used. In the acquisition trial, mouse was placed in the light room and, 10 seconds later, the partitive guillotine door was opened. As soon as the mouse moved into the dark room, the guillotine door was closed and electric shock of 41 to 45 V was given for 1 second through the metal grid bars of the floor. The retention trial was conducted 24 hours later since then. […] The induction of amnesia was performed by fixing a mouse at prone position without anesthetization at 20 minutes before learning acquisition trial and injecting pirenzepine (10 μg/2 μl/mouse bilaterally into cerebral ventricles using a microsyringe. Moreover, a group not to administered with pirenzepine before acquisition trial (non-amnesia comparison group) was also provided. The mice were made to be 12 to 21 animals per group and the testing compound was administered orally at 30 or 60 minutes before acquisition trial. The improvement rate was calculate according to following equation and the results are shown in Table 5 (refer to: M. P. Callfield et at, J. Pharm. Pharmacol. 1983, 35, 131-132). [formula] […]",
  "note": "For at least one compound, name, drawing or mass did not settle the structure.",
  "data": [
    {"smiles": "O=C1N(c2ccc(F)cc2)CCN1C1CCCN(Cc2ccccc2)C1", "note": "(racemic) [Referential example 8, (±)-1-(4-fluorophenyl)-3-[3-(1-phenylmethyl)piperidyl]-2-imidazolidinone]", "values": [
      {"measurement": "improvement effect on the amnesia / disturbance of learning (in words)", "value": "very excellent improvement effect on the amnesia"}
    ]},
    {"smiles": "O=C1N(c2ccc(F)cc2)CCN1[C@H]1CCCN(Cc2ccccc2)C1", "note": "[Referential example 9, (S)-1-(4-fluorophenyl)-3-[3-(1-phenylmethyl)piperidyl]-2-imidazolidinone]", "values": [
      {"measurement": "improvement effect on the amnesia / disturbance of learning (in words)", "value": "could not improve the amnesia"}
    ]}
  ]
}
